Measurements published in PMC11054756.
These are yes or no findings as the source states them, for the method shown. Binding seen in cells or lysates may run through a third protein. Some results given as binding are weak or reduced against the parent protein; the word gives no strength.

Protein sequences, listed by entry. Tags and fused reporters are not part of them.
UniProt Q9HC29: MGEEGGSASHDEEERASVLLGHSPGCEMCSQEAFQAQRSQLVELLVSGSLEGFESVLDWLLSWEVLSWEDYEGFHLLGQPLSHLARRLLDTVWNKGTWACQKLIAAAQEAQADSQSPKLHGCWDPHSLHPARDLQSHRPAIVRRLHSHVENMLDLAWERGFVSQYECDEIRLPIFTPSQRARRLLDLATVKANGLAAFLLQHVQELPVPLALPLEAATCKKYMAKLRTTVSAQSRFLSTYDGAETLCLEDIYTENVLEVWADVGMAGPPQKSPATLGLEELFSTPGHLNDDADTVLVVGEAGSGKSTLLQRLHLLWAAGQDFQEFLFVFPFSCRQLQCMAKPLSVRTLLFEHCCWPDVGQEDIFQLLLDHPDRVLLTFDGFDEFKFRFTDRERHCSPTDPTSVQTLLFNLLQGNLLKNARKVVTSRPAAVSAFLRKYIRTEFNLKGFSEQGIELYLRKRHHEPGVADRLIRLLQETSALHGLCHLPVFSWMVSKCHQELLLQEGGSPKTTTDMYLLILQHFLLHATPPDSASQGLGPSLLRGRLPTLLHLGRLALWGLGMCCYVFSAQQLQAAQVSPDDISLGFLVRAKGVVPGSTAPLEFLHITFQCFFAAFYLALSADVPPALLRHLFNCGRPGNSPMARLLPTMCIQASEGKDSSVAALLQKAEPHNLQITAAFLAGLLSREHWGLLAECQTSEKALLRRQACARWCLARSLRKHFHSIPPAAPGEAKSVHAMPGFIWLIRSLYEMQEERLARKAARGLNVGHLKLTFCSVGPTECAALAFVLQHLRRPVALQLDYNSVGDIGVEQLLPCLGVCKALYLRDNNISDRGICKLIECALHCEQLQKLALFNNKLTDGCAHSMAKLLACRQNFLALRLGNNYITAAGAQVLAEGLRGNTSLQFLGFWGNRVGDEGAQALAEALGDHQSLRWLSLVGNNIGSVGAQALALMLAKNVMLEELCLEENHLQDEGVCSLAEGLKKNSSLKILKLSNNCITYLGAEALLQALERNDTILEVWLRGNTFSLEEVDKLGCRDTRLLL
UniProt Q7Z434: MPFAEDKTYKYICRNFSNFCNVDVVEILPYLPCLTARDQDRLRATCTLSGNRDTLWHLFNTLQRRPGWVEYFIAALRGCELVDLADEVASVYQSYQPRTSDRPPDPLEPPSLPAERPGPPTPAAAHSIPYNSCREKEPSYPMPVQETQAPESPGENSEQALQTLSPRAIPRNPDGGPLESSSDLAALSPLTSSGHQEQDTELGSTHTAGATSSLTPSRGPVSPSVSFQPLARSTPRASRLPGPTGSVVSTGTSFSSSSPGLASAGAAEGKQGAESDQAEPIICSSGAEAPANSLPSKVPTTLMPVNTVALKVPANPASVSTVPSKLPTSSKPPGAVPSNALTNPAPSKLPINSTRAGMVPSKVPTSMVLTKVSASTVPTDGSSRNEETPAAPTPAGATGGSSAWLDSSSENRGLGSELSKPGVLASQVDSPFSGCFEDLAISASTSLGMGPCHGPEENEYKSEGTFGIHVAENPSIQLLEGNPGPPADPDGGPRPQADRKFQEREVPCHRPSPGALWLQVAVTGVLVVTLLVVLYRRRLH

Key:
[1] = molecular target: NOD2 (human (endogenous in THP-1)) (UniProt Q9HC29); test: co-IP; 150 µg of RIPA lysate of THP-1 macrophage-like cells infected with DENV-2 (MOI 10) or transfected with PIC, 12 h; anti-NOD2 antibody (2 µg) overnight at 4 °C, protein A agarose, eight washes with PBS; immunoblot with anti-MAVS
[2] = molecular target: NOD2 (human (endogenous in THP-1)) (UniProt Q9HC29); test: condition: only mock cells (neither infected with DENV-2 nor transfected with PIC); co-IP; 150 µg of RIPA lysate of mock (untreated) THP-1 macrophage-like cells; anti-NOD2 antibody (2 µg) overnight at 4 °C, protein A agarose, eight washes with PBS; immunoblot with anti-MAVS

Substance: MAVS (mitochondrial antiviral signaling protein) (from UniProt Q7Z434 1-540)
- binding [1]: binds
- binding [2]: no binding
